Values from PubChem BioAssay AID602196 (INSERM, 2012)

Aim: 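Modifiers of cisplatin sensitivity in A549 cells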
Cells: human A549 lung cancer cells
Reagents: siRNA pair against human genes
Time to read-out: 48 h transfection before cisplatin; time from cisplatin to read-out not stated
Conditions: cisplatin at a dose killing half of control-siRNA cells; exact dose and duration not given
Detection: 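Cisplatin cell death as a shift from the 50% death seen with control siRNA; siRNAs toxic or growth-blocking alone scored 0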
Scale: two-siRNA summed score (-2 to +2): higher = both siRNAs protect from cisplatin killing; -2 means both sensitise; mean protection from cisplatin (shift in death) and protection from cisplatin (shift in death), siRNA C and protection from cisplatin (shift in death), siRNA D: higher = protection from cisplatin killing
Active means: 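Each siRNA scores 0 if harmful alone by LDH or WST-1, otherwise +1 if it reduces and -1 if it increases cisplatin killing; a gene is active when both siRNAs agree (sum +2 or -2)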
Calls: active = both siRNAs shift cisplatin killing the same way; inactive = no consistent shift, or siRNA harmful alone
In all, the deposit lists about 23,000 reagents; this is a random part of them. Over the whole deposit, 455 (2%) were called active. 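Active includes both protection and sensitisation; some change values fall well beyond the stated -50 to +50 range.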 The numbers tell different reagents against one gene apart. Not given: the amount of reagent.

target | reagent no. | two-siRNA summed score (-2 to +2) | mean protection from cisplatin (shift in death) (%) | protection from cisplatin (shift in death), siRNA C (%) | protection from cisplatin (shift in death), siRNA D (%) | activity call
MMGT1 (membrane magnesium transporter 1) | 1 | 0 | -4.2 | -12.7 | 4.4 | inactive
DDX3X (DEAD-box helicase 3 X-linked) | 1 | 1 | 11.1 | 9.5 | 12.7 | inactive
N4BP1 (NEDD4 binding protein 1) | 1 | 0 | -2 | 0.3 | -4.4 | inactive
CBR3 (carbonyl reductase 3) | 1 | 0 | -7.7 | -8.7 | -6.7 | inactive
BMP3 (bone morphogenetic protein 3) | 1 | 1 | 3.8 | 20.9 | -13.2 | inactive
ZBTB45 (zinc finger and BTB domain containing 45) | 1 | 0 | 4 | -1.9 | 10 | inactive
FLJ43950 | 1 | 1 | 17.7 | 25.7 | 9.7 | inactive
SPINT4 (serine peptidase inhibitor, Kunitz type 4) | 1 | 0 | 11.4 | 14.9 | 8 | inactive
COX7C (cytochrome c oxidase subunit 7C) | 1 | 2 | 15.4 | 12.6 | 18.2 | active
DUSP21 (dual specificity phosphatase 21) | 1 | 0 | 2.5 | 0.2 | 4.8 | inactive
LOC391844 | 1 | 0 | 2.4 | -2 | 6.8 | inactive
BCL6B (BCL6B transcription repressor) | 1 | 1 | 9.3 | -5.5 | 24 | inactive
GDF3 (growth differentiation factor 3) | 1 | 1 | 15 | 23.8 | 6.2 | inactive
LOC393062 | 1 | 0 | 11.6 | 17.9 | 5.2 | inactive
FCGR1BP (Fc gamma receptor Ib, pseudogene) | 1 | 0 | 27.2 | 21.1 | 33.3 | inactive
LOC442422 | 1 | 0 | 10 | 15.8 | 4.3 | inactive
LOC388931 | 1 | 1 | 21.6 | 4.9 | 38.2 | inactive
ARPC5 (actin related protein 2/3 complex subunit 5) | 1 | 0 | 1.1 | -0.2 | 2.5 | inactive
SH3GL3 (SH3 domain containing GRB2 like 3, endophilin A3) | 1 | 0 | 5.7 | 1.9 | 9.6 | inactive
STPG4 (sperm-tail PG-rich repeat containing 4) | 1 | 1 | 13.3 | 2.7 | 23.9 | inactive
LOC387941 | 1 | 1 | 16 | 0.6 | 31.5 | inactive
LOC123397 | 1 | 0 | 8.5 | 13.1 | 4 | inactive
IFT38 (intraflagellar transport 38) | 1 | -1 | -12.2 | -19.8 | -4.6 | inactive
LOC441722 (U2 small nuclear RNA auxiliary factor 1-like 4 pseudogene) | 1 | 0 | 1.2 | 6.8 | -4.4 | inactive

Part of the list above in another layout:
target,reagent no.,two-siRNA summed score (-2 to +2),mean protection from cisplatin (shift in death) (%),"protection from cisplatin (shift in death), siRNA C (%)","protection from cisplatin (shift in death), siRNA D (%)",activity call
LOC388931,1,1,21.6,4.9,38.2,inactive
ARPC5 (actin related protein 2/3 complex subunit 5),1,0,1.1,-0.2,2.5,inactive
"SH3GL3 (SH3 domain containing GRB2 like 3, endophilin A3)",1,0,5.7,1.9,9.6,inactive

Further entries follow.
target | reagent no. | two-siRNA summed score (-2 to +2) | mean protection from cisplatin (shift in death) (%) | protection from cisplatin (shift in death), siRNA C (%) | protection from cisplatin (shift in death), siRNA D (%) | activity call
ABI3 (ABI family member 3) | 1 | 0 | -5.7 | -3.9 | -7.5 | inactive
LEF1 (lymphoid enhancer binding factor 1) | 1 | 0 | -7.6 | 0.2 | -15.4 | inactive
ZNF552 (zinc finger protein 552) | 1 | 0 | -0.2 | 7.1 | -7.6 | inactive
HROB (homologous recombination factor with OB-fold) | 1 | 0 | 10.3 | 13.5 | 7.2 | inactive
GPR148 (G protein-coupled receptor 148) | 1 | 1 | 14.8 | -3.9 | 33.4 | inactive
LOC339793 | 1 | 0 | 1.1 | 6.9 | -4.8 | inactive
IPO4 (importin 4) | 1 | -1 | -3.4 | -15.7 | 8.9 | inactive
THOC1 (THO complex subunit 1) | 1 | -1 | -9.5 | 6.6 | -25.6 | inactive
BRI3 (brain protein I3) | 1 | 0 | -11.4 | -10.2 | -12.6 | inactive
F3 (coagulation factor III, tissue factor) | 1 | -1 | -2.2 | 17 | -21.3 | inactive
PEX11B (peroxisomal biogenesis factor 11 beta) | 1 | 0 | -5.1 | 2.3 | -12.6 | inactive
LEMD2 (LEM domain nuclear envelope protein 2) | 1 | 0 | 4.4 | 11.3 | -2.6 | inactive
NFKBIZ (NFKB inhibitor zeta) | 1 | 0 | 3.5 | -13.1 | 20.1 | inactive
LINC02092 (long independently transcribed non-coding RNA 2092) | 1 | 0 | -9.8 | -15.1 | -4.4 | inactive
SLC17A1 | 1 | -1 | -6.9 | -27 | 13.2 | inactive
FLJ40712 (retired record) | 1 | 0 | -1.4 | -7.6 | 4.8 | inactive
RAB41 (RAB41, member RAS oncogene family) | 1 | 1 | 9.6 | 26.5 | -7.3 | inactive
MMP9 (matrix metallopeptidase 9) | 1 | -1 | -26.7 | -19.4 | -34 | inactive
LOC440941 | 1 | 0 | 2.6 | 2.5 | 2.8 | inactive
ZCCHC14 (zinc finger CCHC-type containing 14) | 1 | 1 | 9.3 | 5.7 | 13 | inactive
LOC441460 | 1 | 1 | 4 | 11.1 | -3.1 | inactive
OFCC1 (orofacial cleft 1 candidate 1 (pseudogene)) | 1 | 0 | 7 | 5.5 | 8.6 | inactive
KIF24 (kinesin family member 24) | 1 | 0 | 7.7 | -16.9 | 32.3 | inactive
KIF24 (kinesin family member 24) | 2 | 1 | 17.2 | 23.5 | 10.9 | inactive
ATPAF1 (ATP synthase mitochondrial F1 complex assembly factor 1) | 1 | 0 | -10.6 | -12.8 | -8.4 | inactive
RPL29 (ribosomal protein L29) | 1 | -1 | -7.3 | -15.2 | 0.6 | inactive
LDHAL6B (lactate dehydrogenase A like 6B) | 1 | 0 | 8.2 | 24.7 | -8.3 | inactive
PI3 (peptidase inhibitor 3) | 1 | 0 | -3.2 | 5.4 | -11.7 | inactive
TFAM (transcription factor A, mitochondrial) | 1 | 0 | 3 | 2.9 | 3 | inactive
LOC390234 | 1 | 0 | 20.5 | -5.1 | 46 | inactive
OR4K13 (olfactory receptor family 4 subfamily K member 13) | 1 | 1 | 23.5 | 9.1 | 37.9 | inactive
BUD13 (BUD13 spliceosome associated protein) | 1 | 0 | 2.6 | 1.7 | 3.5 | inactive
SCG2 (secretogranin II) | 1 | 1 | 10 | 10.7 | 9.2 | inactive
